The values below are quoted from earlier work in article doi:10.1101/2020.05.21.106633v1 (bioRxiv, 2020).

Molecules are shown by their SMILES.

For this series the following is noted: cited from earlier work.

Take `CC[C@@]1(O)C(=O)OCc2c1cc1n(c2=O)Cc2cc3ccccc3nc2-1` [CPT, camptothecin]: the solubility result is on record as “poor solubility”.
